Results published in the supplement of paper PMC10849652.
The other results are listed elsewhere or left out.

Protein sequences, listed by entry. Tags and fused reporters are not part of them. Lines headed by an entry give the natural chain unless they say otherwise; changes in a name come on top.
UniProt P56937: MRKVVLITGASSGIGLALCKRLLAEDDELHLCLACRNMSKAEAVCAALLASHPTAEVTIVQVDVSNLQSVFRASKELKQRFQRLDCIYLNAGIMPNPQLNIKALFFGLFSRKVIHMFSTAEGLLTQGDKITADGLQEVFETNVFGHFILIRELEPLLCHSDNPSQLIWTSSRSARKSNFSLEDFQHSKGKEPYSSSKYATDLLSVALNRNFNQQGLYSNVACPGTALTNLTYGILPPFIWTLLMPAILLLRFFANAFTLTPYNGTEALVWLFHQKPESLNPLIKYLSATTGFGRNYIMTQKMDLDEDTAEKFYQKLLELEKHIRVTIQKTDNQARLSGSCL
UniProt P54198, whole entry, looked up: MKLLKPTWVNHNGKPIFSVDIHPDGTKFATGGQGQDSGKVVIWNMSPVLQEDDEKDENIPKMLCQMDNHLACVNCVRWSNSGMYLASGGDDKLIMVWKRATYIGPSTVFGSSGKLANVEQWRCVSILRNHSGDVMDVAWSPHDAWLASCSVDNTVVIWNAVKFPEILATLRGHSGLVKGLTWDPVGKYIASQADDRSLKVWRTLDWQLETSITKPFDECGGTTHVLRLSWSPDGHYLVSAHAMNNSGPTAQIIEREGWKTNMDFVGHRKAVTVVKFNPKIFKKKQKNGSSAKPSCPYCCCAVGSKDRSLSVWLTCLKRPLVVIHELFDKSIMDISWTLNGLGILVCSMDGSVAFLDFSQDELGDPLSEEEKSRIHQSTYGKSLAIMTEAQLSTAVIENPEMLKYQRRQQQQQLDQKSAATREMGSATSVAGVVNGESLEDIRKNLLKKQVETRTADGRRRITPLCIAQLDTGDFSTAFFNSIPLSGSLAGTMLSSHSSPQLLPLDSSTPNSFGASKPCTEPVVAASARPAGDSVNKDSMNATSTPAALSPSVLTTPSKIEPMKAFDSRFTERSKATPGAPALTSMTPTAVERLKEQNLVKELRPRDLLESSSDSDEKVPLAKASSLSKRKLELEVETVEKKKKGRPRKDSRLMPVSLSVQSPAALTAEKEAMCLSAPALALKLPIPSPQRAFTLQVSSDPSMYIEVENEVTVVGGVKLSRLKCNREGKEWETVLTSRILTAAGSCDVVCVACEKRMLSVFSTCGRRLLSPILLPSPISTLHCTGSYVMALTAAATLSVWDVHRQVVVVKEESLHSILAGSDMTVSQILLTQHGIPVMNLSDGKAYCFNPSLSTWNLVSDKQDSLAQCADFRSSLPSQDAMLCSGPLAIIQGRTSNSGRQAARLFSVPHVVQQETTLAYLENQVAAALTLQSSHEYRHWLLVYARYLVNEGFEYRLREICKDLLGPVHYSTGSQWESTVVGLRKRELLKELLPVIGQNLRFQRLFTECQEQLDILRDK
UniProt P51659: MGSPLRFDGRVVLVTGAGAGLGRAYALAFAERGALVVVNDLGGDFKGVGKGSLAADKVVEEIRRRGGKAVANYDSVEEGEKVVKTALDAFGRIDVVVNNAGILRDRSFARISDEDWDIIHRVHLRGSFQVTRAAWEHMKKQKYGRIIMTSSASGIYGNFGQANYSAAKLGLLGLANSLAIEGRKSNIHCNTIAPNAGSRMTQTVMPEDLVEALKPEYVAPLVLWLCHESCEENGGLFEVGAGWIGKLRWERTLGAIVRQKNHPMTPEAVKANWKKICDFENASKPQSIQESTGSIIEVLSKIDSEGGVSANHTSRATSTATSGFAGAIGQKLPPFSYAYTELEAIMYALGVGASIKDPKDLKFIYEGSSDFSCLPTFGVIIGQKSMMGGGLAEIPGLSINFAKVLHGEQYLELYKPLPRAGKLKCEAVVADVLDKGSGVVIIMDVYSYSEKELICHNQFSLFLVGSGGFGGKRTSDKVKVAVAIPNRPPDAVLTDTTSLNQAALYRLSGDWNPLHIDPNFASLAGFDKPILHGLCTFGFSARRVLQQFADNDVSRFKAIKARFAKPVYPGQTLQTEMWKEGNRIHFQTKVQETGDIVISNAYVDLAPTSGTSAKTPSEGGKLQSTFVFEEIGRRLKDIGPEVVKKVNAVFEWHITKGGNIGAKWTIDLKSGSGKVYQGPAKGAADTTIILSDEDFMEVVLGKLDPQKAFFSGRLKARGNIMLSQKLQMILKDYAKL
UniProt Q92902: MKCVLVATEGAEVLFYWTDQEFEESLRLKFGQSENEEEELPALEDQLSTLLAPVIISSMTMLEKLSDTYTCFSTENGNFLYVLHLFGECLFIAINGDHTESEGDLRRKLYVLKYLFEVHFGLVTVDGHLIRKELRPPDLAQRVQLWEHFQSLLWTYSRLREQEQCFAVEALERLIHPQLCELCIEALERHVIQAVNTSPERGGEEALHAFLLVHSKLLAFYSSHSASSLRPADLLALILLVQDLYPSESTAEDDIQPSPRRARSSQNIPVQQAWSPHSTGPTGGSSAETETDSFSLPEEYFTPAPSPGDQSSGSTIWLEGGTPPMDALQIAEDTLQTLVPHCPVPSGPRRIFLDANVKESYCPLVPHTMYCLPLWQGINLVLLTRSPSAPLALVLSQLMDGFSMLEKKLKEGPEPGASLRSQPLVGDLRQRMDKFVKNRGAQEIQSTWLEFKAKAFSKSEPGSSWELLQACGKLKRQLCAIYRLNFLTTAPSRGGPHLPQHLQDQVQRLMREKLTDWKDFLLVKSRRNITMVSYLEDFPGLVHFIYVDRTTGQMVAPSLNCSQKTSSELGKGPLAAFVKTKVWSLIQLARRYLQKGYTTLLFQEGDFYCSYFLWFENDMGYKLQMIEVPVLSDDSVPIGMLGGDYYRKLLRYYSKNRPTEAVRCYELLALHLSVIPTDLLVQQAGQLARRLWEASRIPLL
UniProt Q58FF7, whole entry, looked up: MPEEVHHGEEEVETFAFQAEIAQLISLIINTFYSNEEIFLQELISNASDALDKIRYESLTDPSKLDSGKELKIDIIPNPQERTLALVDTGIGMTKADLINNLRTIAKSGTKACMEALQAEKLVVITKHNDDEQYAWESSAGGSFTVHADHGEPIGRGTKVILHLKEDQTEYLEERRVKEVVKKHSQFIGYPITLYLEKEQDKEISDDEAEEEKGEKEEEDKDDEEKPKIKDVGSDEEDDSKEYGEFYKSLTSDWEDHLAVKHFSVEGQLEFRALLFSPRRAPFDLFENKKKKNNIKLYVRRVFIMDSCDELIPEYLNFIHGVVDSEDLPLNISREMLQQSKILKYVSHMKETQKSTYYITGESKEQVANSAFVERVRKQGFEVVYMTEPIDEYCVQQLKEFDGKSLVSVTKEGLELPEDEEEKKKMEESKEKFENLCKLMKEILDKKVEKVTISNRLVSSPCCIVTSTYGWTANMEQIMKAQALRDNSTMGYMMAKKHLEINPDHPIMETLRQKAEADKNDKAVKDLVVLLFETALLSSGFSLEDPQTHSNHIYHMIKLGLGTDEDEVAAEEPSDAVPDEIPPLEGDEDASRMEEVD

Assays:
Assay in all cases: log2 fold change, soluble protein after heating vs DMSO (PISA); higher = thermal stabilisation; K562 lysate, 10 uM; active = over 0.2 and 3.5 SD of the protein, either way, in both replicates (recomputed)
lapatinib = compound: CS(=O)(=O)CCNCc1ccc(-c2ccc3ncnc(Nc4ccc(OCc5cccc(F)c5)c(Cl)c4)c3c2)o1 [lapatinib]
Method in brief: (§1)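 To prepare the extract, K562 pellets were dounce-homogenised in PBS pH 7.4 with 1 mM MgCl2, giving crude material at 1 mg/mL protein. This was treated with 10 μM compound for 30 min, then heated in aliquots for 3 min over 48°C-58°C before pooling and addition of NP-40 to 0.5% at 4°C. Centrifugation at 21,000xg for 90 min left soluble protein in the supernatant, which TMTpro 16plex LC-MS/MS quantified with equalised channel sums. Results are log-two fold changes in thermal stability compared with solvent controls, from duplicates.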

crizotinib = compound: C[C@@H](Oc1cc(-c2cnn(C3CCNCC3)c2)cnc1N)c1c(Cl)ccc(F)c1Cl [crizotinib]
Method in brief: as §1

duvelisib = compound: C[C@H](Nc1ncnc2nc[nH]c12)c1cc2cccc(Cl)c2c(=O)n1-c1ccccc1 [duvelisib]
Method in brief: as §1

tozasertib = compound: Cc1cc(Nc2cc(N3CCN(C)CC3)nc(Sc3ccc(NC(=O)C4CC4)cc3)n2)n[nH]1 [tozasertib]
Method in brief: as §1

doramapimod = compound: Cc1ccc(-n2nc(C(C)(C)C)cc2NC(=O)Nc2ccc(OCCN3CCOCC3)c3ccccc23)cc1 [doramapimod]
Method in brief: as §1

nilotinib = compound: Cc1cn(-c2cc(NC(=O)c3ccc(C)c(Nc4nccc(-c5cccnc5)n4)c3)cc(C(F)(F)F)c2)cn1 [nilotinib]
Method in brief: as §1

[1] = compound: Cc1nc(Nc2n[nH]c3c2CN(C(=O)N[C@H](CN(C)C)c2ccccc2)C3(C)C)c2sccc2n1
Method in brief: as §1

dasatinib = compound: Cc1nc(Nc2ncc(C(=O)Nc3c(C)cccc3Cl)s2)cc(N2CCN(CCO)CC2)n1 [dasatinib]
Method in brief: as §1

[2] = compound: Cc1ncc(-c2ccnc(Nc3ccc(S(C)(=O)=O)cc3)n2)n1C(C)C
Method in brief: as §1

[3] = compound: Cn1cc(-c2ccc3c(c2)CCN3C(=O)Cc2cccc(C(F)(F)F)c2)c2c(N)ncnc21
Method in brief: as §1

quisinostat = compound: Cn1cc(CNCC2CCN(c3ncc(C(=O)NO)cn3)CC2)c2ccccc21 [quisinostat]
Method in brief: as §1

tipifarnib = compound: Cn1cncc1[C@@](N)(c1ccc(Cl)cc1)c1ccc2c(c1)c(-c1cccc(Cl)c1)cc(=O)n2C [tipifarnib]
Method in brief: as §1

[4] = compound: NC(=O)Nc1cc(-c2cccc(F)c2)sc1C(=O)N[C@H]1CCCNC1
Method in brief: as §1

[5] = compound: NC(=O)c1cnc(N[C@@H]2CCCC[C@@H]2N)nc1Nc1cccc(-n2nccn2)c1
Method in brief: as §1

[6] = compound: NC1(c2ccc(-c3nc4ccn5c(=O)[nH]nc5c4cc3-c3ccccc3)cc2)CCC1
Method in brief: as §1

pictilisib = compound: CS(=O)(=O)N1CCN(Cc2cc3nc(-c4cccc5[nH]ncc45)nc(N4CCOCC4)c3s2)CC1 [pictilisib]
Method in brief: as §1

[7] = compound: C[C@H](C1=CC=C(C=C1)C(=O)NC2=C3C=CNC3=NC=C2)N
Method in brief: as §1

gandotinib = compound: Cc1cc(Nc2cc(CN3CCOCC3)c3nc(C)c(Cc4ccc(Cl)cc4F)n3n2)n[nH]1 [gandotinib]
Method in brief: as §1

bafetinib = compound: Cc1ccc(NC(=O)c2ccc(CN3CC[C@H](N(C)C)C3)c(C(F)(F)F)c2)cc1Nc1nccc(-c2cncnc2)n1 [bafetinib]
Method in brief: as §1

[8] = compound: Cc1cccc(CC(=O)N2CCc3c2ccc(-c2cn(C)c4ncnc(N)c24)c3F)n1
Method in brief: as §1

Measured: log2 fold change

HRAS (UniProt P01112)
inactive: lapatinib -0.003 | crizotinib 0.094 | duvelisib -0.011 | tozasertib 0.042 | doramapimod 0.029 | nilotinib 0.109 | [1] -0.144 | dasatinib 0.079 | [2] -0.139 | [3] -0.006 | quisinostat 0.07 | tipifarnib 0.058 | [4] -0.029 | [5] 0.001 | [6] 0.073

HSD17B7 (UniProt P56937)
inactive: lapatinib 0.105 | pictilisib 0.022 | [7] 0.029 | duvelisib 0.023 | gandotinib -0.13 | tozasertib 0.001 | bafetinib -0.055 | [8] 0.036 | nilotinib 0.047 | [1] 0.142 | dasatinib -0.096 | [2] 0.022 | [3] 0.06 | tipifarnib 0.197 | [5] -0.07 | [6] -0.024

HIRA (UniProt P54198)
inactive: lapatinib -0.044 | crizotinib -0.047 | [7] 0.074 | duvelisib -0.009 | gandotinib -0.017 | tozasertib 0.176 | doramapimod -0.039 | [8] -0.021 | nilotinib 0.05 | [1] -0.065 | dasatinib -0.016 | [2] 0.103 | [3] -0.012 | quisinostat 0.002 | tipifarnib -0.004 | [4] 0.016 | [5] -0.057 | [6] -0.017

HSD17B4 (UniProt P51659)
inactive: lapatinib 0 | pictilisib -0.007 | crizotinib 0 | [7] -0.025 | duvelisib -0.03 | gandotinib 0.028 | tozasertib 0.006 | doramapimod 0.008 | bafetinib 0.003 | [8] -0.002 | nilotinib -0.004 | [1] -0.028 | dasatinib 0.012 | [2] -0.01 | [3] 0.019 | quisinostat 0.011 | tipifarnib -0.015 | [4] -0.028 | [5] -0.018 | [6] -0.027

HPS1 (UniProt Q92902)
inactive: lapatinib -0.071 | pictilisib 0.098 | crizotinib -0.027 | [7] -0.081 | duvelisib 0.043 | gandotinib 0.003 | tozasertib 0.042 | doramapimod 0.034 | bafetinib -0.086 | [8] 0.102 | dasatinib 0.005 | [3] -0.067 | quisinostat -0.031 | [4] 0.039 | [5] 0.027 | [6] -0.069

HMGN2 (UniProt P05204)
inactive: lapatinib -0.077 | pictilisib 0.01 | crizotinib 0.157 | [7] 0.013 | duvelisib -0.015 | gandotinib 0.022 | tozasertib -0.072 | doramapimod -0.091 | bafetinib -0.011 | [8] -0.029 | nilotinib -0.019 | [1] 0.023 | dasatinib -0.005 | [2] -0.018 | [3] -0.019 | quisinostat 0.081 | tipifarnib 0.009 | [4] -0.006 | [5] 0.083 | [6] 0.006

HSP90AB3P (UniProt Q58FF7)
inactive: lapatinib -0.01 | pictilisib -0.031 | crizotinib 0.047 | [7] -0.031 | duvelisib 0.007 | gandotinib -0.047 | tozasertib -0.027 | doramapimod -0.134 | bafetinib -0.098 | [8] 0.06 | nilotinib -0.039 | [1] 0.157 | dasatinib 0.014 | [2] 0.171 | [3] 0.038 | quisinostat 0.074 | tipifarnib 0.039 | [4] 0.045 | [5] -0.021 | [6] 0.031
